Reference: the supplement of paper PMC12823440, “Inhibitors supercharge kinase turnover through native proteolytic circuits” (Nature, 2025)
Some of the results follow. The calls rarely recur for the same compound in another form.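 Kinases were expressed as nanoluciferase fusions in K562 cells and luminescence was read every 4 h between 2 and 18 h as percent of control, DMSO set to 100% and a positive control to 0%. A time point counts as decreased when the signal drops significantly (2 sigma). The hit call is the authors' own, does not follow from the count of time points alone, and its rule is not shown.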

Target: EGFR_L718V (UniProt P00533)
Assay: kinase-Nluc reporter destabilization hit call (1 = scored as downregulated) (binary); higher = compound decreases kinase abundance
Conditions: K562; 2-18 h

kinase-Nluc reporter destabilization hit call, inactive:
CC(C)Cn1ncc2cc(Oc3ccc(F)cc3F)c(C(=O)NCCN(C)C)cc21 [p38α inhibitor 1] (10 µM) 0
CNc1cc2c(Nc3cccc(Br)c3)ncnc2cn1 (10 µM) 0
CN1C(=O)[C@@H](NC(=O)c2cc(Cc3ccccc3)on2)COc2ccccc21 (10 µM) 0
CC(C1CC1)n1cnc2c(NCc3cccc(C(F)(F)F)c3)nc(NCCN(C)C)nc21 (stereo not drawn) (10 µM) 0
Cc1n[nH]c2ncc(C(=O)N3CCC[C@H]3c3ccc(Cl)cc3)cc12 (10 µM) 0
COc1ccc(Br)c(C=O)c1O [6-Bromo-2-hydroxy-3-methoxybenzaldehyde] (10 µM) 0
Oc1ccc(-c2cnc3ccc(NCc4ccco4)nn23)cc1 [IRAK inhibitor 2] (2.5 µM) 0
C[C@H](Nc1cc2c(-c3ccc4c(c3)OCO4)noc2cn1)c1ccccc1 (10 µM) 0
Nc1ccc(C(=O)Nc2cccc(-c3nc(N4CCOCC4)c4oc5ncccc5c4n3)c2)cn1 (10 µM) 0
CCOC(=O)c1c(N2CCc3ccc(OC)cc3C2)oc(C=C2C=Nc3ncccc32)c1O (10 µM) 0
Cc1ncc(-c2cc(F)c(O)c(F)c2)cc1-c1cc(F)c(O)c(F)c1 (10 µM) 0
N=C(NC(=N)N1CCCC1)Nc1ccc(OC(F)(F)F)cc1 (10 µM) 0
CC1(C)CN(C(=O)c2ccc(-c3cccc4nc(NC(=O)C5CC5)nn34)cc2)C1 [Solcitinib] (10 µM) 0

Molecules listed so far containing an aryl methoxy group, in the order listed:
kinase-Nluc reporter destabilization hit call, inactive:
COc1ccc(Br)c(C=O)c1O [6-Bromo-2-hydroxy-3-methoxybenzaldehyde] (10 µM) 0
CCOC(=O)c1c(N2CCc3ccc(OC)cc3C2)oc(C=C2C=Nc3ncccc32)c1O (10 µM) 0
